Laboratory results reported in PubChem BioAssay AID180 (DTP/NCI, 2004).
The list is a part of this screen's results and no random one: it gathers tests that were run many times, whatever their T/C, doses with no T/C, and many T/C values between a quarter and a half above the control. Further doses and runs are listed elsewhere. T/C gives the treated animals as a percentage of the vehicle group. Schedule codes are those of the source, taken here to give the interval after Q, in days (D) or hours (H), and the number of doses after X. Some T/C values carry the count of animals alive at the toxicity check (mostly the fifth day); without a count, all were alive then. Some entries give survivors of the animals treated and no T/C: the source files T/C as zero there, which appears to mark a toxic dose or a test without result, not a measured value. Counts of survivors are from the toxicity check (mostly the fifth day) where no day follows; animals may have died later. Some doses were run more than once; their values stand side by side, smallest first.

System: BDF1 mice, Adenocarcinoma 755 s.c., tumor weight T/C
Assay: NCI In Vivo Anticancer Drug Screen. Data for tumor model Adenocarcinoma 755 (subcutaneous) in B6D2F1 (BDF1) mice
Conditions: T/C endpoint: mean tumor weight, higher T/C = larger tumour; for T/C: evaluated on day 12
In short: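 Compound activity was tested in mice carrying transplanted tumors. Survival or tumor size was measured, and each value is the treated-group measurement divided by that of the vehicle-treated control group (T/C).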

[1] = dose: 100.0 mg/kg/injection, schedule: Q01DX011 (ip), vehicle: carboxymethylcellulose (CMC)
[2] = dose: 200.0 mg/kg/injection, schedule: Q01DX011 (ip), vehicle: carboxymethylcellulose (CMC)
[3] = dose: 150.0 mg/kg/injection, schedule: Q01DX011 (ip), vehicle: methylcellulose (MC)

## CCCCCCCCCCCCNCCCCCCCCCCCC
dose: 2.5 mg/kg/injection, schedule: Q01DX006 (ip), vehicle: other
  survivor count: 6 of 10
dose: 5.0 mg/kg/injection, schedule: Q01DX006 (ip), vehicle: other
  survivor count: 3 of 10
dose: 7.5 mg/kg/injection, schedule: Q01DX006 (ip), vehicle: other
  survivor count: 1 of 10

## Cc1cc(=O)c2c(C)cccc2[nH]1
dose: 120.0 mg/kg/injection, schedule: Q01DX011 (ip), vehicle: carboxymethylcellulose (CMC)
  survivor count: 6 of 10
dose: 160.0 mg/kg/injection, schedule: Q01DX011 (ip), vehicle: carboxymethylcellulose (CMC)
  survivor count: 6 of 10
dose: 640.0 mg/kg/injection, schedule: Q01DX011 (ip), vehicle: carboxymethylcellulose (CMC)
  survivor count: 1 of 10

## COC(=O)[C@@H]1c2cc3c(c(O)c2[C@@H](OC2OC(C)C(OC)C(C)(OC)C2OC)C[C@]1(C)O)C(=O)c1c(O)cc2c(c1C3=O)O[C@H]1O[C@]2(C)[C@H](O)[C@@H](N(C)C)[C@@H]1O (stereo partly specified)
dose: 0.2 mg/kg/injection, schedule: Q01DX011 (ip), vehicle: saline
  T/C: 137 % of control [9 of 10 alive]
dose: 0.67 mg/kg/injection, schedule: Q01DX011 (ip), vehicle: saline
  T/C: 132 % of control
dose: 1.0 mg/kg/injection, schedule: Q01DX011 (ip), vehicle: saline
  survivor count: 3 of 10

## OC1CC([CH2][Hg][I])OC([CH2][Hg][I])C1 (stereo unspecified)
[1]
  survivor count: 0 of 10
[2]
  survivor count: 0 of 10

## Oc1ccc2ccccc2c1N=Nc1ccc(F)cc1
dose: 56.0 mg/kg/injection, schedule: Q01DX011 (ip), vehicle: carboxymethylcellulose (CMC)
  survivor count: 5 of 10
dose: 185.0 mg/kg/injection, schedule: Q01DX011 (ip), vehicle: carboxymethylcellulose (CMC)
  survivor count: 3 of 10

## CS(=O)(=O)OCC(O)C(O)COS(C)(=O)=O (stereo unspecified)
dose: 1000.0 mg/kg/injection, schedule: Q01DX011 (ip), vehicle: carboxymethylcellulose (CMC)
  survivor count: 6 of 10

## C[C@H]1C(=O)O[C@@H]2CCN3CC=C(COC(=O)[C@](C)(O)[C@@]1(C)O)[C@H]23
dose: 180.0 mg/kg/injection, schedule: Q01DX011 (ip), vehicle: methylcellulose (MC)
  survivor count: 2 of 10

## Nc1nc(SCc2ccc([N+](=O)[O-])cc2)c2ncn(C3OC(CO)C(O)C3O)c2n1 (stereo unspecified)
[3]
  survivor count: 3 of 10

## Cn1c(N)nc2c(ncn2C2CC(O)C(CO)O2)c1=O (stereo unspecified)
dose: 240.0 mg/kg/injection, schedule: Q01DX011 (ip), vehicle: carboxymethylcellulose (CMC)
  T/C: 125 % of control

## NC(=O)c1cn(C2OC(CO)C(O)C2O)c2ncnc(N)c12 (stereo unspecified)
dose: 1.0 mg/kg/injection, schedule: Q01DX011 (ip), vehicle: carboxymethylcellulose (CMC)
  survivor count: 0 of 10

## O=[N+]([O-])c1ccc(C=Nc2ccc3c(c2)C(Br)c2ccccc2-3)cc1 (stereo unspecified)
dose: 880.0 mg/kg/injection, schedule: Q01DX011 (ip), vehicle: saline
  survivor count: 3 of 10

## Nc1nc(SCc2ccccn2)c2[nH]cnc2n1
dose: 50.0 mg/kg/injection, schedule: Q01DX011 (ip), vehicle: carboxymethylcellulose (CMC)
  survivor count: 3 of 10
[1]
  survivor count: 0 of 10

## C[C@@H]1C[C@H]2CC[C@H](O2)[C@H](C)C(=O)O[C@@H](C)C[C@@H]2CC[C@@H](O2)[C@@H](C)C(=O)O[C@H](C)C[C@H]2CC[C@H](O2)[C@H](C)C(=O)O[C@@H](C)C[C@@H]2CC[C@@H](O2)[C@@H](C)C(=O)O1
dose: 37.5 mg/kg/injection, schedule: Q01DX011 (ip), vehicle: methylcellulose (MC)
  T/C: 129 % of control [9 of 10 alive]
dose: 70.0 mg/kg/injection, schedule: Q01DX011 (sc), vehicle: olive oil, sesame oil, peanut oil
  survivor count: 3 of 10
dose: 75.0 mg/kg/injection, schedule: Q01DX011 (sc), vehicle: methylcellulose (MC)
  T/C: 141 % of control
dose: 80.0 mg/kg/injection, schedule: Q01DX011 (sc), vehicle: olive oil, sesame oil, peanut oil
  survivor count: 2 of 10
[3]
  T/C: 143 % of control
dose: 150.0 mg/kg/injection, schedule: Q01DX011 (sc), vehicle: olive oil, sesame oil, peanut oil
  survivor count: 1 of 8

## Cn1c(N)nc2nc[nH]c2c1=S
dose: 1500.0 micrograms/kg/injection, schedule: Q01DX011 (ip), vehicle: methylcellulose (MC)
  survivor count: 6 of 10

## NC(C=O)C(O)C(O)C(O)CO (stereo unspecified)
dose: 500.0 mg/kg/injection, schedule: Q01DX011 (ip), vehicle: carboxymethylcellulose (CMC)
  T/C: 132 % of control

## c1cc2n(n1)CCN2
dose: 230.0 mg/kg/injection, schedule: Q01DX011 (ip), vehicle: saline
  survivor count: 2 of 10

## O=C1C=Cc2ccc(O)cc2C1=O
dose: 2.0 mg/kg/injection, schedule: Q01DX011 (ip), vehicle: saline
  survivor count: 0 of 6
dose: 3.0 mg/kg/injection, schedule: Q01DX011 (ip), vehicle: saline
  survivor count: 0 of 6
dose: 4.0 mg/kg/injection, schedule: Q01DX011 (ip), vehicle: saline
  T/C: 144 % of control [8 of 10 alive]
dose: 4.5 mg/kg/injection, schedule: Q01DX011 (ip), vehicle: saline
  survivor count: 0 of 6
dose: 6.7 mg/kg/injection, schedule: Q01DX011 (ip), vehicle: saline
  survivor count: 1 of 6
dose: 16.0 mg/kg/injection, schedule: Q01DX011 (ip), vehicle: saline
  survivor count: 0 of 10

## COc1cc(-c2ccc(N=Nc3ccc4c(S(=O)(=O)O)cc(S(=O)(=O)O)c(N)c4c3O)c(OC)c2)ccc1N=Nc1ccc2c(S(=O)(=O)O)cc(S(=O)(=O)O)c(N)c2c1O
dose: 16.0 mg/kg/injection, schedule: Q01DX011 (ip), vehicle: carboxymethylcellulose (CMC)
  survivor count: 3 of 10
dose: 32.0 mg/kg/injection, schedule: Q01DX011 (ip), vehicle: carboxymethylcellulose (CMC)
  survivor count: 3 of 10

## CCOC(=O)CCCc1ccc(N=NN(C)CC(C)C)cc1
dose: 375.0 mg/kg/injection, schedule: Q01DX011 (ip), vehicle: carboxymethylcellulose (CMC)
  survivor count: 5 of 10

## COC(=O)C1(N)CCCC1
[2]
  survivor count: 5 of 10
dose: 400.0 mg/kg/injection, schedule: Q01DX011 (ip), vehicle: carboxymethylcellulose (CMC)
  survivor count: 1 of 10

## Cn1c(=O)c2c(nc(N/N=C/C(Cl)Cl)n2C)n(C)c1=O
dose: 25.0 mg/kg/injection, schedule: Q01DX011 (ip), vehicle: methylcellulose (MC)
  survivor count: 2 of 10 and 4 of 10

## CC(=O)Nc1c(Cl)c(Cl)c2c(c1Cl)Cc1cc(Cl)ccc1-2
dose: 55.0 mg/kg/injection, schedule: Q01DX011 (ip), vehicle: saline
  survivor count: 6 of 10
dose: 110.0 mg/kg/injection, schedule: Q01DX011 (ip), vehicle: acetone
  survivor count: 3 of 10
dose: 450.0 mg/kg/injection, schedule: Q01DX011 (ip), vehicle: saline
  survivor count: 2 of 10
dose: 900.0 mg/kg/injection, schedule: Q01DX011 (ip), vehicle: other
  survivor count: 0 of 10

## CCOC1=C(N2CC2)C(=O)C(OCC)=C(N2CC2)C1=O
dose: 2.5 mg/kg/injection, schedule: Q01DX011 (ip), vehicle: methylcellulose (MC)
  survivor count: 5 of 10
dose: 20.0 micrograms/kg/injection, schedule: Q01DX011 (ip), vehicle: carboxymethylcellulose (CMC)
  T/C: 138 % of control

## Cc1nc(Cl)c(C#N)c(C(F)(F)F)c1N
[2]
  survivor count: 1 of 10

## O=C1[O][Sb]23[O]C(=O)C([O]2)C(O)C(O)C2[O][Sb]4([O]C(=O)C([O]4)C(O)C(O)C1[O]3)[O]C2=O (stereo unspecified)
dose: 160.0 mg/kg/injection, schedule: Q01DX011 (ip), vehicle: methylcellulose (MC)
  survivor count: 3 of 10 and 6 of 10

## O=C(NCCCCCCCCCCNC(=O)N1CC1)N1CC1
dose: 2.0 mg/kg/injection, schedule: Q01DX011 (ip), vehicle: carboxymethylcellulose (CMC)
  survivor count: 2 of 10
dose: 4.0 mg/kg/injection, schedule: Q01DX011 (ip), vehicle: carboxymethylcellulose (CMC)
  survivor count: 0 of 10

## CNc1ncnc2c1cnn2C
dose: 40.0 mg/kg/injection, schedule: Q01DX011 (ip), vehicle: methylcellulose (MC)
  survivor count: 6 of 10

## c1cc[nH]c1
dose: 20.0 mg/kg/injection, schedule: Q01DX011 (ip), vehicle: carboxymethylcellulose (CMC)
  T/C: 129 % of control [9 of 10 alive]

## CCCCn1cnc2c(SCc3ccncc3)nc(N)nc21
dose: 250.0 mg/kg/injection, schedule: Q01DX011 (ip), vehicle: methylcellulose (MC)
  survivor count: 2 of 10

## [OH-].[OH-].[Pd+2].c1ccc(CSc2ncnc3nc[nH]c23)cc1.c1ccc(CSc2ncnc3nc[nH]c23)cc1.c1ccc(CSc2ncnc3nc[nH]c23)cc1.c1ccc(CSc2ncnc3nc[nH]c23)cc1
dose: 800.0 mg/kg/injection, schedule: Q01DX011 (ip), vehicle: carboxymethylcellulose (CMC)
  survivor count: 0 of 10
